Literature values as cited in US20090312295A1, “Second line treatment of metastatic hormone refractory prostate cancer using satraplatin” (priority 2006, published 2009).
Some results were stated once for a whole list of compounds, not compound by compound. At least one structure is not confirmed: it was looked up by name or label, or the drawing left a doubt.

Tested on: prostate cancer cell lines PC-3, DU 145 and LNCaP
Details: metabolites of satraplatin

For `N.NC1CCCCC1.[Cl-].[Cl-].[Pt+2]` [JM118, reference compound], the “activity relative to satraplatin” value is listed as “up to 16 fold”.
